The other results are listed elsewhere or left out.
Compound: CC1Cc2ccccc2N1C(=O)C1CCCN(C1)C(=O)CCl (mixture of isomers) [TRIM25 ligand 11 (diastereomer mixture)]
Experiment: probe-labelled cysteine peptide fold change vs DMSO (competition) (log2 fold change); higher = less target engagement (more negative = stronger competition)
Settings: THP-1, incubation time: 4 h
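Note: competitive chemoproteomic profiling in live THP-1 cells with an iodoacetamide desthiobiotin (IA-DTB) probe, comparing probe-labelled peptide intensities in compound-treated cells against DMSO-treated controls.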

Target	probe-labelled cysteine peptide fold change (10 µM)	probe-labelled cysteine peptide fold change (50 µM)
PTK2B_Q14289_180_VSEGMALQLGCLELRR (UniProt Q14289)	-0.333	0.0668
PSMB8_P28062_160_LLSNMMCQYR (UniProt P28062)	0.00249	-0.0625
PSMD12_O00232_108+109_MVQQCCTYVEEITDLPIK (UniProt O00232)	-0.214	-0.0992
PSMD2_Q13200_779_GTLTLCPYHSDR (UniProt Q13200)	0.0966	0.131
PSMA5_P28066_76_IVEIDAHIGCAMSGLIADAK (UniProt P28066)	0.0116	-0.0441
PSMD1_Q99460_378_NSVCHTATVIANSFMHCGTTSDQFLR (UniProt Q99460)	0.059	0.0532
PSTPIP1_O43586_259_LTLEGCSIDADIDSFIQAK (UniProt O43586)	0.0804	-0.0294
PSME3_P61289_92_RLDECEEAFQGTK (UniProt P61289)	-0.0241	-0.176
PSMD6_Q15008_266_QYLFSLYECR (UniProt Q15008)	0.307	0.161
PTPRJ_Q12913_1149_CEEYWPSK (UniProt Q12913)	0.189	0.205
PTPN12_Q05209_242_TGAICAIDYTWNLLK (UniProt Q05209)	0.0567	0.124
PSD4_Q8NDX1_933_SHENCLDAAADDLLDLQR (UniProt Q8NDX1)	-0.0584	-0.157
PSMC2_P35998_236_TDACFIR (UniProt P35998)	-0.118	0.0228
PTPA_Q15257_103_AGHCAPSEAIEK (UniProt Q15257)	0.00322	-0.128
PSMD13_Q9UNM6_276_IQLLCLMEMTFTRPANHR (UniProt Q9UNM6)	-0.105	-0.0056
PSMD7_P51665_116_RYCPNSVLVIIDVKPK (UniProt P51665)	0.0251	0.168
PTGFRN_Q9P2B2_429_VPGFADDPTELACR (UniProt Q9P2B2)	0.15	0.0482
PTPRC_P08575_344_FQCGNMIFDNK (UniProt P08575)	-0.0774	-0.137
PTPRG_P23470_858_CTADMNITAEHSNHPENK (UniProt P23470)	0.0217	-0.141
PTPRF_P10586_1582_TVDIYGHVTCMR (UniProt P10586)	9.14e-06	0.148
PSMA1_P25786_92_QECLDSR (UniProt P25786)	-0.0114	-0.0536
PTPN23_Q9H3S7_1466_HGVPPPCKPLASASISQK (UniProt Q9H3S7)	-0.139	-0.419
PSMG2_Q969U7_168_CIPEIDDSEFCIR (UniProt Q969U7)	-0.123	0.0815
PSMD13_Q9UNM6_49_KLWHQLTLQVLDFVQDPCFAQGDGLIK (UniProt Q9UNM6)	-0.149	-0.154

Target	probe-labelled cysteine peptide fold change (10 µM)	probe-labelled cysteine peptide fold change (50 µM)
PSPC1_Q8WXF1_216_CGDGAFLLTTTPR (UniProt Q8WXF1)	-0.0317	0.033
PSMA4_P25789_107_YLLQYQEPIPCEQLVTALCDIK (UniProt P25789)	0.333	0.151
PSMD3_O43242_483_ISFCLDIHNMSVK (UniProt O43242)	-0.196	-0.103
PTPN1_P18031_226_SGTFCLADTCLLLMDKR (UniProt P18031)	0.0249	-0.175
PSMD4_P55036_9_VLESTMVCVDNSEYMR (UniProt P55036)	0.187	-0.0795
PTRHD1_Q6GMV3_118_NIDHMLWLEQPENIATCIALRPYPK (UniProt Q6GMV3)	-0.291	-0.258
PSMD13_Q9UNM6_276_KIQLLCLMEMTFTRPANHR (UniProt Q9UNM6)	-0.293	0.0022
PSMC5_P62195_363_GVCTEAGMYALR (UniProt P62195)	-0.0163	0.0167
PTDSS1_P48651_153_EADVMEYAVNCHVITWER (UniProt P48651)	0.164	0.262
PSMD5_Q16401_412_GISSQPFPELHCAALK (UniProt Q16401)	0.0827	0.107
PSPH_P78330_187_IIMIGDGATDMEACPPADAFIGFGGNVIR (UniProt P78330)	0.401	0.168
PSMB10_P40306_17_GGFSFENCQR (UniProt P40306)	-0.0615	-0.17
PTK2B_Q14289_562_NILVASPECVK (UniProt Q14289)	-0.0586	-0.123
PTPN23_Q9H3S7_116_YEQACILYNLGALHSMLGAMDK (UniProt Q9H3S7)	0.125	-0.0645
PTPN7_P35236_324_ARGEVDILGIVCQLR (UniProt P35236)	0.0606	0.0622
PTRH1_Q86Y79_72_DRHCAADLALAPLGDAQLVLLRPR (UniProt Q86Y79)	0.0314	0.0315
PTCD3_Q96EY7_139_DIAEPHIPCLMPEYFEPQIK (UniProt Q96EY7)	-0.296	-0.376
PSMC2_P35998_377_LCPNSTGAEIR (UniProt P35998)	0.115	0.0762
PTGR2_Q8N8N7_187_VVGICGTHEK (UniProt Q8N8N7)	0.0779	0.17
PSMD8_P48556_173_CYYFDYK (UniProt P48556)	0.391	0.367
PTPRE_P23469_186_VILSQLDGIPCSDYINASYIDGYK (UniProt P23469)	-0.324	-0.207
PSMD14_O00487_120_QTGRPEMVVGWYHSHPGFGCWLSGVDINTQQSFEALSER (UniProt O00487)	-0.0288	-0.0756
PSMC6_P62333_228_DHQPCIIFMDEIDAIGGRR (UniProt P62333)	-0.233	-0.0784
PSMD11_O00231_257_YMLLCK (UniProt O00231)	0.162	0.211

An excerpt of these results, in CSV form:
Target,probe-labelled cysteine peptide fold change (10 µM),probe-labelled cysteine peptide fold change (50 µM)
PSMB10_P40306_17_GGFSFENCQR (UniProt P40306),-0.0615,-0.17
PSMD8_P48556_173_CYYFDYK (UniProt P48556),0.391,0.367
PSMD11_O00231_257_YMLLCK (UniProt O00231),0.162,0.211

Later entries.

Target	probe-labelled cysteine peptide fold change (10 µM)	probe-labelled cysteine peptide fold change (50 µM)
PSMD2_Q13200_251_CALGVFR (UniProt Q13200)	-0.127	0.217
PSMD7_P51665_116_YCPNSVLVIIDVKPK (UniProt P51665)	-0.0584	-0.125
PTPRC_P08575_762_CAEYWPSMEEGTR (UniProt P08575)	-0.0546	-0.192
PSD4_Q8NDX1_988_LHCPSDALDLWEEQLGR (UniProt Q8NDX1)	0.188	0.0373
PSMB5_P28074_161_GMGLSMGTMICGWDK (UniProt P28074)	0.0566	0.0365
PSMA3_P25788_42_CKDGVVFGVEK (UniProt P25788)	-0.482	-0.223
PSMC1_P62191_58_LPLVTPHTQCR (UniProt P62191)	0.0658	0.105
PTGFRN_Q9P2B2_571_PFFAAGNTFEMTCK (UniProt Q9P2B2)	-0.22	-0.0941
PTPRE_P23469_244_CHQYWPDQGCWTYGNIR (UniProt P23469)	0.132	0.306
PSMD4_P55036_37_LQAQQDAVNIVCHSK (UniProt P55036)	-0.126	-0.145
PSMD2_Q13200_448_SGALLACGIVNSGVR (UniProt Q13200)	-0.0465	-0.0191
PTPN6_P29350_453_QESLPHAGPIIVHCSAGIGR (UniProt P29350)	0.324	0.175
PSMB1_P20618_82_TVIGCSGFHGDCLTLTK (UniProt P20618)	0.0679	0.0527
PSMD13_Q9UNM6_276_KIQLLCLMEMTFTR (UniProt Q9UNM6)	-0.226	0.282
PSMC4_P43686_210_GVLMYGPPGCGK (UniProt P43686)	-0.0493	-0.126
PTER_Q96BW5_164_CGIIGEIGCSWPLTESERK (UniProt Q96BW5)	0.0066	-0.0414
PSMD13_Q9UNM6_114_SSDEAVILCK (UniProt Q9UNM6)	0.115	-0.055
PSMG1_O95456_235_IPAILYLCYTDVMK (UniProt O95456)	0.385	0.371
PSMC6_P62333_193_AVASQLDCNFLK (UniProt P62333)	-0.0838	-0.21
PSMC5_P62195_112_NIDINDVTPNCR (UniProt P62195)	-0.0865	-0.0343
PSMA2_P25787_213_ESFEGQMTEDNIEVGICNEAGFRR (UniProt P25787)	-0.228	-0.248
PSMB2_P49721_91_NLADCLR (UniProt P49721)	-0.154	-0.117
PTPN12_Q05209_164_ISCEDEQAR (UniProt Q05209)	0.112	0.071

— the supplement of paper PMC12067093, “Discovery and optimisation of a covalent ligand for TRIM25 and its application to targeted protein ubiquitination” (Chemical Science, 2025)
